Source: the supplement of paper PMC12764529
± gives the half width of the 95% confidence interval. For many entries, trypsin and chymotrypsin gave values far apart.

Tests used:
[1] = folding stability dG unfold (combined trypsin and chymotrypsin); higher = more stable
Description: (§1)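 Folding stability of de novo designed mini-proteins (<80 aa, no Cys; designed by TrROS, TrMRF, ProteinMPNN and the joint model) was measured by cDNA display proteolysis with trypsin and chymotrypsin. Each protease was used at 11 concentrations in a threefold dilution series plus a no-protease condition. K50 was inferred by Bayesian fitting of sequencing counts, and dG unfold was derived against a sequence-predicted unfolded-state K50 (Tsuboyama et al. method). Sequences shown include variable-length N-terminal GS-type padding (SAGGSAGG...) inside a display construct carrying a PA tag. Rows were kept only if the AF2 dimer inter-PAE was >15, to exclude likely homo-oligomers.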

[2] = folding stability dG unfold from trypsin proteolysis; higher = more stable
Description: as §1

[3] = folding stability dG unfold from chymotrypsin proteolysis; higher = more stable
Description: as §1

Sequence	folding stability dG unfold [1] [kcal/mol]	folding stability dG unfold [2] [kcal/mol]	folding stability dG unfold [3] [kcal/mol]
SAGGSAGGSAGMKIFVMEMEIKIKKKKKKDGKLETEIEIKIKPIKEIEIPENDPELKKLLSAGGSAGGSAGG [r11_236_TrROS_Hall]	1.73 ± 0.39	2.38 ± 0.18	–
SAGGSAGGSAMPEPVTITVRVPYEPDEAEAAAERIREEEYPDAKSITVTRDPATGTATFTVNSAGGSAGGSA [r18_390_JUSTAS]	< -1	-0.222 ± 0.18	–
SAGGSAGGSAGMILTEEVTVAVPTLSTADGTRHTTTVPELVVVELKLPPVPPEAVEKLLASAGGSAGGSAGG [r11_318_JUSTAS]	-0.887 ± 0.16	-0.0441 ± 0.019	–
SEVEITVEFDEENGVLTITVKNKETNETYKVRIVKVDEEKGLIYVEIENKKTGKKIRIEMTLEELKKLLKSA [r9_1221_TrROS_Hall]	> 6	3.11 ± 0.18	–
SMSPSETETTTYTRTIPFPKSNPEQAKAEAEKEVRAELEAKGLKIDIPITIEWENDTVTVTIPISVTPPLSA [r9_889_JUSTAS]	-0.144 ± 0.29	0.594 ± 0.13	–
SAGGSAGGSASSPVVTPVGDVITVTAPPNTTVTIKYPDGTVETRVVAADETVSVPLNASVVASAGGSAGGSA [r18_452_JUSTAS]	0.486 ± 0.045	1.32 ± 0.028	–
SAGGSAGGSVDPVTTPLPPDAAYTVNLTTPENTTTNIPLADLPADTVVTVTRYPDSESISVTAVSAGGSAGG [r6_77_JUSTAS]	0.758 ± 0.11	1.64 ± 0.097	–
SAGGSAGGSAHIEYDGNMWVITYPGGKEHTVNPGNPEEALEELLKMPPENVPPIEIEPIPPSSAGGSAGGSA [r18_68_TrROS]	0.75 ± 0.071	1.33 ± 0.068	–
MMEIKVKLVIERPDGKWLELTLTLKAPSLEELEEELRKLLEELGFKVESLEVRVERNEDGTVTVTVRIRIDS [r1_281_TrROS_Hall]	> 6	3.71 ± 0.17	–
SAGGSAGGSAGGMVETKVTLLPNGKVKVTTTTLDENGNIISTTTTVSEVSLPFNPNVSLLSAGGSAGGSAGG [r7_137_JUSTAS]	0.273 ± 0.063	1.13 ± 0.032	–
SAGGSAGGSAGGMTSTTSGFTTVGETPVRVTPVTTTPPSGGALTSPQVTVLHPGSSPGLVSAGGSAGGSAGG [r11_121_JUSTAS]	0.675 ± 0.051	–	1.03 ± 0.011
SAGKKTIIIKIPPNMTVEELKKALKNLKPNEKVTITVNGKKYTITVKDGKIKITFPENVKNMILIIEVKSAG [r5_373_TrROS_Hall]	2.4 ± 0.36	–	2.54 ± 0.057
SAGGSAGGSAMRPPAAVEVTETLEPPGHPLRPVRVKLPGTGEEVVLVTTGESVEAALARAAASAGGSAGGSA [r18_345_JUSTAS]	1.12 ± 0.25	–	1.58 ± 0.046
SAGGSAMTLPPGVTVSFSRSPEGTLTVTVTLPDGTPVTLPLATDPAGPLDLTPEELAAAIAAAIAASAGGSA [r15_780_JUSTAS]	3.37 ± 0.053	–	3.741 ± 0.0095
SAGGSAGGMFYVVRLEGPDGPLRTLVRPAESLEEARAFAEALAPEGARVTVEPLEEEEAERLLGSAGGSAGG [r6_267_TrMRF]	2.13 ± 0.065	–	2.54 ± 0.053
SAGGSAGGSGGTIKLPLYPPEGKEYKGTIPKEKLEAAIAKGEPIKVTLKTKGKEVKEYTIPIKSAGGSAGGS [r12_991_JUSTAS]	-0.983 ± 0.48	–	-0.582 ± 0.44
SAGGSAGGSAGPPPYTLVATRTFPTAPVRVYRTADPSRLLVYFPPLGRRVEVPPDVPNLVSAGGSAGGSAGG [r11_1007_TrMRF]	0.702 ± 0.19	–	2.03 ± 0.088
SAGGSAGGSAPYLGADGRFALYRHPDSPEITLYEYDLETGEWRPVASLPADQLPEELLEAESAGGSAGGSAG [r3_241_TrMRF]	0.957 ± 0.045	–	1.49 ± 0.068
SVVIPIKTDDPAALAEALAAVRAALEAARAAGLEVVPLPILLDDGKEIEFPVDPAAAEDAVLARLRAALESA [r9_127_JUSTAS]	2.19 ± 0.11	–	2.61 ± 0.034
SAEIVLTLDELRALAEAGDLERVRALLEEARALFPGARIRIVLPPPPPPPPPEPEEVEEERRRRRLEEESAG [r14_236_TrROS_Hall]	0.865 ± 0.13	–	1.37 ± 0.05
SAGGSAGGSAGGMTPEEEEALRKAREAAERNPEVPVVEVEVTLPGPDGDPRVIRITLPVRSAGGSAGGSAGG [r7_91_JUSTAS]	1.25 ± 0.066	–	1.7 ± 0.05
SAGGMIKIEIEVLVSPELTEEEKEAIAKETAEKVVKEIAEKNPELKEKIDIKNIKVTITPVEESEELQSAGG [r13_128_JUSTAS]	1.21 ± 0.34	–	1.66 ± 0.23
SAGGSAGGGASTRRTITVPYEDPEEAFEKVKEEVKAETGKPTEVTLTEIDPNNPGVITVEVTVSSAGGSAGG [r6_211_JUSTAS]	0.351 ± 0.07	–	0.938 ± 0.019
SAGGSAGGSAGGSGTEELLLEVPVLRRSDGGWEPVETRELPVSVPVNDAPAARELAEAASAGGSAGGSAGGS [r4_153_TrMRF]	0.592 ± 0.11	–	1.14 ± 0.024

Individual results from above.
SAGGSAGGSAGMILTEEVTVAVPTLSTADGTRHTTTVPELVVVELKLPPVPPEAVEKLLASAGGSAGGSAGG [r11_318_JUSTAS] – folding stability dG unfold [1] [kcal/mol]: -0.887 ± 0.16
SAGGMIKIEIEVLVSPELTEEEKEAIAKETAEKVVKEIAEKNPELKEKIDIKNIKVTITPVEESEELQSAGG [r13_128_JUSTAS] – folding stability dG unfold [1] [kcal/mol]: 1.21 ± 0.34
SAEIVLTLDELRALAEAGDLERVRALLEEARALFPGARIRIVLPPPPPPPPPEPEEVEEERRRRRLEEESAG [r14_236_TrROS_Hall] – folding stability dG unfold [1] [kcal/mol]: 0.865 ± 0.13

Next entries follow.

Sequence	folding stability dG unfold [1] [kcal/mol]	folding stability dG unfold [2] [kcal/mol]	folding stability dG unfold [3] [kcal/mol]
SAGGSAGGSAGGMTTLVLPAEVEPVPDGVRVRLPDGEDLYVPPGERVERTPDRVEVTLGSAGGSAGGSAGGS [r10_305_JUSTAS]	-0.448 ± 0.25	–	0.383 ± 0.058
SAGGSAGGSAMTVNLNTPGEEAPSLIAEARAAGTPATVVVTPKEGNKLHPVTGEFPAPPLLSAGGSAGGSAG [r3_149_JUSTAS]	0.653 ± 0.1	–	1.25 ± 0.054
SAGGGMLTELSTVSSSFDPATNRSVSESLVLDPEKGTIIRLKTVTDLAGPPTTTTSESVEPLEPGLVSAGGS [r16_207_JUSTAS]	0.625 ± 0.044	–	1.12 ± 0.015
SAGGSAGGSAGGPTFEEIKKRNPTDGEIRVISEDGEDLTVEVTFPDGAKARATFPKDALSAGGSAGGSAGGS [r10_612_TrMRF]	0.558 ± 0.16	–	1.05 ± 0.15
SAGGAPPVLPAGQLELLDFRVEPRPDGGYRAVLLARVRLPGTGRTVLLLLVSEFPPDGPPRTALGVFPSAGG [r13_263_TrMRF]	3.99 ± 0.088	–	4.38 ± 0.059
SAGGSAGGGLVVRSPEAVERLAARLEAEGYEVRVVPGFGERGPFYVVEVRPLPPAPPDPRLDDRSAGGSAGG [r6_181_TrMRF]	1.41 ± 0.085	–	2 ± 0.029
SAGGSAGGSAGGGMMPVYTTETIPVPPGVPPEVVKAQVEAVPGVSATFDPATGTLTVTKLSAGGSAGGSAGG [r7_762_JUSTAS]	0.644 ± 0.042	–	1.09 ± 0.034
SAMIVVPNPLSDTPIEIPVDPNASPEEARALIEANPLVPPENLEYAEEALRRYYALLADPALAAAAAAASAG [r14_732_JUSTAS]	0.96 ± 0.077	–	1.59 ± 0.091
SAGGSAHPPGAPVVRVEVRAELLEERPSPDGVPEATFRVEVEVRVETVPALPPLGGGLADAPDPDLSAGGSA [r2_495_TrMRF]	1.26 ± 0.098	–	1.8 ± 0.056
SAGMPPAVTITVSRSTAPDGTYTLTATITLPDGTTLATRTVPLSTPNDAAAVAAAVAAFEAAAAALLASAGG [r19_13_JUSTAS]	3.32 ± 0.042	–	3.727 ± 0.012
SAGPTVRQETFGEKYRIEVEVSPDGTVKVKIVNENGEVTELEGKVEPGKPVVLPFPLDGHVVNVVVLPASAG [r5_237_TrMRF]	2.52 ± 0.13	–	2.91 ± 0.06
SAGGSAGGSAVRTIFIPGGNIKDIIELIKSDPGQPVQIHAPDGWVIKITGDKDIDIHPFPDSAGGSAGGSAG [r3_269_TrROS]	0.216 ± 0.15	–	0.337 ± 0.084
SAMLTILSVETHTLPNGEEIVTVTLKTPDLETLDALLAELGLTGTRDPDDPQVVTITTSREKVQEIKEKSAG [r14_777_JUSTAS]	4.57 ± 0.3	–	4.71 ± 0.2
SKPITADEIAKHFPGIKDVEPTPNKKRLDFDNPNGHKPTIEVSPDGTIMIEHQNPDNGQKQEQEIPIDDLSA [r9_427_TrROS]	0.0598 ± 0.26	–	0.596 ± 0.056
SAGGSAGGSAGGSMTTITFPATVEESPTDTVTVTPPDGSTITVPKSRVSFDPSGTVTITGSAGGSAGGSAGG [r7_684_JUSTAS]	1.01 ± 0.072	–	1.63 ± 0.039
SASLVEEIIAEAEKKEAESGKKVPVTVTLPLTSEPSGPVLSEEEVERVVEEIKKALPDMPITVVLEPPGSAG [r14_636_JUSTAS]	1.04 ± 0.11	–	1.56 ± 0.1
NGEPQKYDIPLWIEDPNGKPHLYRIKVEVRPNPDGNYRAKIELENPGDGKKEEIEMDAPGAPIKPGDWIRIS [r1_14_TrROS]	0.356 ± 0.29	–	1.05 ± 0.26
SAAAPEAAAAAVTAAIAALAAARGLDVDVVVTASAEADGSVTITVDLSSPEVRAAFLAALPPDVDLALASAG [r14_491_JUSTAS]	1.28 ± 0.084	–	1.79 ± 0.054
SAGGSAGGSAGMLSVTELSTEEKGSLVTTTTRATVGSTTVTTTTTTFVPRSTALLNPDRGSAGGSAGGSAGG [r11_213_JUSTAS]	-0.0509 ± 0.48	–	0.55 ± 0.089
SMRPDETALVRFEFELPFPPERPEEAVEAVRRLVDALLAARGYEADVPVAVEPFGDRLRVLVPVALRPRASA [r9_889_TrMRF]	1.64 ± 0.12	–	2.12 ± 0.054
SAGGSAGGSAGGPTRRLELLVFDPETNRLVRRRLELRDGELRLEVEVVRLPPPPPPPARSAGGSAGGSAGGS [r10_354_TrROS_Hall]	1.93 ± 0.097	–	2.68 ± 0.031
SAGGSAGGSAGGTLELEVELADGLRARVRVELDEDGELRVEVEIEPLPAPPPVVVLLFPESAGGSAGGSAGG [r17_65_TrROS_Hall]	0.587 ± 0.19	–	1.26 ± 0.086
SAMAPVRLFRALGLPVRRIDLRRAPDGDLWISAEIEGYVLEPADADGRPRRRPVRLRITMPVRDALDGLSAG [r14_16_TrMRF]	2.08 ± 0.11	–	2.78 ± 0.097
